Measurements as given in article PMC4609988.
Results are given in words; binding and its absence hold for the method and conditions named. Sequences can lack the tags named with a protein.

Target: T1, soluble extracellular domain of Tie1-Fc (UniProt P35590)
T1 sequence: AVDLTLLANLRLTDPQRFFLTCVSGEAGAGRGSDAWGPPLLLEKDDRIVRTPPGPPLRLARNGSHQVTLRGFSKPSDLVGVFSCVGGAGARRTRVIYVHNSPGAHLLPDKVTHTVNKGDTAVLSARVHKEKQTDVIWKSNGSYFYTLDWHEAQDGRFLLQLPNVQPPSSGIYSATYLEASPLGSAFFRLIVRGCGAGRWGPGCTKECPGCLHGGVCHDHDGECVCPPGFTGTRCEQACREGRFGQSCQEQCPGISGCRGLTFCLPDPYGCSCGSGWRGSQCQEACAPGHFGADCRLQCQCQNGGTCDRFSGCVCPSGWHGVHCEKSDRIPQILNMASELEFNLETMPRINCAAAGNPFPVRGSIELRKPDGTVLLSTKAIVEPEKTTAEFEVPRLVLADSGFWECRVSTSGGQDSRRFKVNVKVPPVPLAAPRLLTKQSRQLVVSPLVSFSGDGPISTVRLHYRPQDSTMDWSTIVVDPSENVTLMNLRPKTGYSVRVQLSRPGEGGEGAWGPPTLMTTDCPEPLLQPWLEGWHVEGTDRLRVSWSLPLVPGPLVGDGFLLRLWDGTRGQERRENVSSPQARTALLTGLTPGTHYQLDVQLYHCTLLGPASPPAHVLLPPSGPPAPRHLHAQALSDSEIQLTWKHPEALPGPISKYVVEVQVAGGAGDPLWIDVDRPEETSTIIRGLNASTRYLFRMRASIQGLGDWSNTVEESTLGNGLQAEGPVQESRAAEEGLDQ
Assay: condition: 100 ng variant with 500 ng sTie1-Fc in 500 μl; pull-down; in vitro binding assay: 100 ng of each recombinant protein mixed with 500 ng of sTie1-Fc or sTie2-Fc in 500 μl TBSN (50 mM Tris, 100 mM NaCl, 1.0% Nonidet P-40, pH 7.5), 4 °C, 2 hr; protein-A agarose or streptactin agarose beads 1 hr; immunoblot; both purified

## CMP-Ang1-1 (human) (ligand)
  binding: no binding
